Reference: PubChem BioAssay AID248 (DTP/NCI, 2004)
The list does not hold the whole screen: it gathers tests that were run many times, whatever their T/C, doses with no T/C, and many T/C values between a quarter and a half above the control. Other doses and runs of a compound stand elsewhere. T/C: endpoint of the treated group in % of that of the vehicle group. Some doses have a count of surviving animals in place of a T/C: the source holds a T/C of zero for them, seemingly a mark for toxic or unscored doses. Some survivor counts are full or nearly so, which does not show that the dose was tolerated: survival well below the control is almost never listed, so the zero probably covers shortened survival too. Survivors were counted at the toxicity check, usually on the fifth day, unless a day is given; later deaths do not show. Schedule codes are those of the source, taken here to give the interval after Q, in days (D) or hours (H), and the number of doses after X. Some entries hold several experiments; the values are given in rising order. Some schedule codes hold Z or #, which are not explained here. For survival time, this PubChem deposit counts one and a half times the control or more as active, and values a quarter to a half above the control carry no call in these data; other NCI protocols may use other cut-offs. Some T/C values carry the count of animals alive at the toxicity check (mostly the fifth day); where none is given, no animal had died by that day.

Test system: L1210 leukemia ip in BDF1 mice, survival T/C
Test: NCI In Vivo Anticancer Drug Screen. Data for tumor model L1210 Leukemia (intraperitoneal) in B6D2F1 (BDF1) mice
Settings: higher T/C = longer survival
[1] = T/C endpoint: mean survival time, dose: 100.0 mg/kg/injection, schedule: Q01DX009 (ip), vehicle: Klucel (hydroxypropylcellulose) (HPC)
[2] = T/C endpoint: mean survival time, dose: 400.0 mg/kg/injection, schedule: Q04DX003 (ip), vehicle: saline with Tween-80
[3] = T/C endpoint: mean survival time, dose: 200.0 mg/kg/injection, schedule: Q01DX001 (ip), vehicle: saline with Tween-80
[4] = T/C endpoint: mean survival time, dose: 400.0 mg/kg/injection, schedule: Q01DX001 (ip), vehicle: saline with Tween-80
[5] = T/C endpoint: mean survival time, dose: 400.0 mg/kg/injection, schedule: Q04DX003 (ip), vehicle: saline

Q: Cn1cnc([N+](=O)[O-])c1Sc1nc(N)nc2nc[nH]c12 was tested. Which T/C (T/C endpoint: mean survival time, dose: 2.5 mg/kg/injection, schedule: Q01DX Z (sc), vehicle: saline) did it give?
A: The T/C was 133 % of control.

Q: And the T/C (T/C endpoint: mean survival time, dose: 5.0 mg/kg/injection, schedule: Q01DX006 (iv), vehicle: saline)?
A: The T/C was 126 % of control.

Q: And the T/C (T/C endpoint: mean survival time, dose: 5.0 mg/kg/injection, schedule: Q01DX009 (ip), vehicle: saline)?
A: Its T/C is 140 % of control.

Q: And the T/C (T/C endpoint: mean survival time, dose: 5.0 mg/kg/injection, schedule: Q01DX Z (im), vehicle: saline)?
A: The T/C was 141 % of control.

Q: And the T/C (T/C endpoint: mean survival time, dose: 6.1 mg/kg/injection, schedule: Q01DX001 (ip), vehicle: saline)?
A: The T/C was 141 % of control.

Q: And the T/C (T/C endpoint: mean survival time, dose: 6.25 mg/kg/injection, schedule: Q01DX001 (oral), vehicle: saline)?
A: Its T/C is 136 % of control.

Q: What about the T/C (T/C endpoint: mean survival time, dose: 10.0 mg/kg/injection, schedule: Q01DX006 (iv), vehicle: saline) of the same compound?
A: The T/C was 143 % of control.

Q: And the T/C (T/C endpoint: mean survival time, dose: 10.0 mg/kg/injection, schedule: Q01DX009 (ip), vehicle: saline)?
A: Its T/C is 133 and 147 % of control.

Q: What about the T/C (T/C endpoint: mean survival time, dose: 10.0 mg/kg/injection, schedule: Q01DX010 (ip), vehicle: saline) of the same compound?
A: Its T/C is 144 % of control.

Q: And the T/C (T/C endpoint: mean survival time, dose: 10.0 mg/kg/injection, schedule: Q01DX Z (im), vehicle: saline)?
A: Its T/C is 132 % of control.

Q: What about the T/C (T/C endpoint: mean survival time, dose: 10.0 mg/kg/injection, schedule: Q01DX Z (ip), vehicle: saline) of the same compound?
A: The T/C was 148 % of control.

Q: And the T/C (T/C endpoint: mean survival time, dose: 10.0 mg/kg/injection, schedule: Q01DX Z (sc), vehicle: saline)?
A: Its T/C is 143 % of control.

Q: What about the T/C (T/C endpoint: mean survival time, dose: 12.5 mg/kg/injection, schedule: Q01DX001 (oral), vehicle: saline) of the same compound?
A: The T/C was 145 % of control.

Q: And the T/C (T/C endpoint: mean survival time, dose: 20.0 mg/kg/injection, schedule: Q01DX Z (im), vehicle: saline)?
A: Its T/C is 148 % of control.

Q: And the T/C (T/C endpoint: mean survival time, dose: 20.0 mg/kg/injection, schedule: Q01DX Z (ip), vehicle: saline)?
A: Its T/C is 125 % of control.

Q: And the T/C (T/C endpoint: mean survival time, dose: 20.0 mg/kg/injection, schedule: Q01DX Z (oral), vehicle: saline)?
A: Its T/C is 147 % of control.

Q: And the T/C (T/C endpoint: mean survival time, dose: 20.0 mg/kg/injection, schedule: Q01DX Z (sc), vehicle: saline)?
A: The T/C was 134 % of control.

Q: And the T/C (T/C endpoint: mean survival time, dose: 25.0 mg/kg/injection, schedule: Q01DX001 (ip), vehicle: saline)?
A: Its T/C is 137 % of control.

Q: What about the T/C (T/C endpoint: mean survival time, dose: 40.0 mg/kg/injection, schedule: Q01DX Z (im), vehicle: saline) of the same compound?
A: Its T/C is 135 % of control.

Q: And the T/C (T/C endpoint: mean survival time, dose: 80.0 mg/kg/injection, schedule: Q01DX Z (im), vehicle: saline)?
A: The T/C was 125 % of control.

Q: And the T/C (T/C endpoint: mean survival time, dose: 100.0 mg/kg/injection, schedule: Q01DX001 (ip), vehicle: saline)?
A: The T/C was 139 % of control.

Q: And the T/C (T/C endpoint: mean survival time, dose: 117.0 mg/kg/injection, schedule: Q01DX001 (ip), vehicle: carboxymethylcellulose (CMC))?
A: The T/C was 144 % of control.

Q: And the T/C (T/C endpoint: mean survival time, dose: 400.0 mg/kg/injection, schedule: Q01DX001 (ip), vehicle: saline)?
A: The T/C was 139 % of control.

Q: What about the T/C (T/C endpoint: mean survival time, dose: 480.0 mg/kg/injection, schedule: Q03DX005 (oral), vehicle: saline) of the same compound?
A: Its T/C is 131 % of control.

Q: What about the T/C (T/C endpoint: median survival time, dose: 2.5 mg/kg/injection, schedule: Q01DX009 (ip), vehicle: saline) of the same compound?
A: The T/C was 145 % of control.

Q: And the T/C (T/C endpoint: median survival time, dose: 10.0 mg/kg/injection, schedule: Q01DX009 (ip), vehicle: saline)?
A: The T/C was 137 % of control.

Q: O=C(Nc1ccc(Cl)cc1[N+](=O)[O-])N1CCN(c2ccccc2)CC1 was tested. Which T/C [1] did it give?
A: The T/C was 130 % of control.

Q: Which survivor count (T/C endpoint: mean survival time, dose: 200.0 mg/kg/injection, schedule: Q01DX009 (ip), vehicle: saline with Tween-80) does the source give for CC(=O)NC(CCSCc1c2ccccc2c(C)c2ccccc12)C(=O)O (centres undefined) here?
A: The survivor count was 6 of 6.

Q: What about the survivor count [2] of the same compound?
A: Its survivor count is 4 of 6.

Q: With NC(N)=NC(N)=Nc1ccc(-c2ccccc2)cc1 as the compound, how does the survivor count (T/C endpoint: mean survival time, dose: 100.0 mg/kg/injection, schedule: Q01DX001 (ip), vehicle: saline with Tween-80) read?
A: The survivor count was 1 of 3.

Q: And the survivor count [3]?
A: Its survivor count is 1 of 3.

Q: And the survivor count [4]?
A: Its survivor count is 0 of 3.

Q: How did the survivor count (T/C endpoint: mean survival time, dose: 200.0 mg/kg/injection, schedule: Q04DX003 (ip), vehicle: saline with Tween-80) turn out when CN(C)NC(=O)C(c1ccccc1)c1ccccc1 was run?
A: Its survivor count is 3 of 6.

Q: And the survivor count [2]?
A: Its survivor count is 1 of 6.

Q: How did the survivor count [3] turn out when CC[As](=O)(O)c1ccc([N+](=O)[O-])cc1 was run?
A: Its survivor count is 0 of 6.

Q: What about the survivor count [4] of the same compound?
A: The survivor count was 0 of 6.

Q: Which survivor count (T/C endpoint: mean survival time, dose: 12.0 mg/kg/injection, schedule: Q01DX009 (ip), vehicle: saline) does the source give for Cc1cc(C[P+](c2ccccc2)(c2ccccc2)c2ccccc2)c(C[P+](c2ccccc2)(c2ccccc2)c2ccccc2)cc1C here?
A: Its survivor count is 1 of 6.

Q: And the survivor count (T/C endpoint: mean survival time, dose: 12.5 mg/kg/injection, schedule: Q04DX003 (ip), vehicle: saline)?
A: The survivor count was 2 of 6.

Q: What about the survivor count (T/C endpoint: mean survival time, dose: 25.0 mg/kg/injection, schedule: Q04DX003 (ip), vehicle: saline) of the same compound?
A: Its survivor count is 0 of 6.

Q: What about the survivor count (T/C endpoint: mean survival time, dose: 50.0 mg/kg/injection, schedule: Q04DX003 (ip), vehicle: saline) of the same compound?
A: Its survivor count is 0 of 6.

Q: What about the survivor count (T/C endpoint: mean survival time, dose: 100.0 mg/kg/injection, schedule: Q04DX003 (ip), vehicle: saline) of the same compound?
A: The survivor count was 0 of 6.

Q: What about the survivor count (T/C endpoint: mean survival time, dose: 200.0 mg/kg/injection, schedule: Q04DX003 (ip), vehicle: saline) of the same compound?
A: Its survivor count is 0 of 6.

Q: And the survivor count [5]?
A: Its survivor count is 0 of 6.

Q: Which results are given for O=C(NCc1ccco1)NCc1ccco1?
A: survivor count [1]: 5 of 6; survivor count (T/C endpoint: mean survival time, dose: 200.0 mg/kg/injection, schedule: Q04DX003 (ip), vehicle: Klucel (hydroxypropylcellulose) (HPC)): 3 of 6; survivor count (T/C endpoint: mean survival time, dose: 400.0 mg/kg/injection, schedule: Q04DX003 (ip), vehicle: Klucel (hydroxypropylcellulose) (HPC)): 0 of 6

Q: Cn1cnnc1[N+](=O)[O-] was tested. Which survivor count (T/C endpoint: mean survival time, dose: 200.0 mg/kg/injection, schedule: Q04DX003 (ip), vehicle: saline sonified) did it give?
A: Its survivor count is 0 of 6.

Q: And the survivor count (T/C endpoint: mean survival time, dose: 400.0 mg/kg/injection, schedule: Q04DX003 (ip), vehicle: saline sonified)?
A: Its survivor count is 0 of 6.

Q: How did the survivor count (T/C endpoint: mean survival time, dose: 200.0 mg/kg/injection, schedule: Q01DX Z (ip), vehicle: methylcellulose (MC)) turn out when CCOC(=O)C(C(=O)OCC)c1nc(=O)[nH]c(=O)[nH]1 was run?
A: The survivor count was 1 of 6.

Q: Which results are given for O=P(O)(O)CO?
A: T/C (T/C endpoint: mean survival time, dose: 200.0 mg/kg/injection, schedule: Q04DX002 (ip), vehicle: saline): 126 % of control [2 of 3 alive]; survivor count (T/C endpoint: mean survival time, dose: 400.0 mg/kg/injection, schedule: Q04DX002 (ip), vehicle: saline): 0 of 3 and 1 of 3; survivor count (T/C endpoint: mean survival time, dose: 800.0 mg/kg/injection, schedule: Q04DX002 (ip), vehicle: saline): 0 of 3

Q: For Clc1sc2ccccc2c1Cl, which survivor count (T/C endpoint: mean survival time, dose: 200.0 mg/kg/injection, schedule: Q01DX009 (ip), vehicle: Klucel (hydroxypropylcellulose) (HPC)) is on record?
A: Its survivor count is 0 of 6.

Q: How did the survivor count (T/C endpoint: mean survival time, dose: 50.0 mg/kg/injection, schedule: Q01DX001 (ip), vehicle: carboxymethylcellulose (CMC)) turn out when C/C(O)=C(\C#N)c1ccc(Cl)cc1 was run?
A: The survivor count was 3 of 3.

Q: What about the survivor count (T/C endpoint: mean survival time, dose: 100.0 mg/kg/injection, schedule: Q01DX009 (ip), vehicle: carboxymethylcellulose (CMC)) of the same compound?
A: The survivor count was 1 of 3.

Q: What about the survivor count (T/C endpoint: mean survival time, dose: 200.0 mg/kg/injection, schedule: Q01DX001 (ip), vehicle: carboxymethylcellulose (CMC)) of the same compound?
A: Its survivor count is 0 of 3 and 0 of 6.

Q: Nc1nc(=S)[nH]c(C(=O)O)c1Cc1ccccc1 was tested. Which survivor count (T/C endpoint: mean survival time, dose: 75.0 mg/kg/injection, schedule: Q04DX003 (ip), vehicle: Klucel (hydroxypropylcellulose) (HPC)) did it give?
A: The survivor count was 6 of 6.

Q: And the survivor count (T/C endpoint: mean survival time, dose: 150.0 mg/kg/injection, schedule: Q04DX003 (ip), vehicle: Klucel (hydroxypropylcellulose) (HPC))?
A: Its survivor count is 6 of 6.

Q: And the survivor count (T/C endpoint: mean survival time, dose: 300.0 mg/kg/injection, schedule: Q04DX003 (ip), vehicle: Klucel (hydroxypropylcellulose) (HPC))?
A: Its survivor count is 6 of 6.

Q: How did the survivor count [2] turn out when N#C/C(=C\c1cc(Cl)cc(Cl)c1O)c1ccc([N+](=O)[O-])cc1 was run?
A: The survivor count was 1 of 6.

Q: With Nc1cc(F)c([N+](=O)[O-])cc1[N+](=O)[O-] as the compound, how does the survivor count (T/C endpoint: mean survival time, dose: 64.0 mg/kg/injection, schedule: Q01DX015 (ip), vehicle: carboxymethylcellulose (CMC)) read?
A: Its survivor count is 6 of 6.

Q: Which survivor count (T/C endpoint: mean survival time, dose: 200.0 mg/kg/injection, schedule: Q01DX009 (ip), vehicle: saline) does the source give for c1cc2c(c3c1CCCC3)CCCC2 here?
A: The survivor count was 5 of 6.

Q: What about the survivor count [5] of the same compound?
A: Its survivor count is 3 of 6.

Q: How did the survivor count (T/C endpoint: mean survival time, dose: 400.0 mg/kg/injection, schedule: Q01DX009 (ip), vehicle: Klucel (hydroxypropylcellulose) (HPC)) turn out when O/N=C\CCC/C=N/O was run?
A: The survivor count was 5 of 6.
